Values from PubChem BioAssay AID743454 (Peter MacCallum Cancer Centre, 2014)
The whole screen tested about 18,000 reagents; shown is an unselected part. 450 of all reagents (2.5%) count as active. 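Single biological run; no consistent viability z cut-off exists, so the class columns, not z-scores, define the calls.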 Unmarked entries are inactive. Reagent sequences are not shown.

Aim: 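Genes whose loss kills vorinostat-resistant colon cancer cells under vorinostat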 (primary screen)
Cells: human HCT116-VR colon cancer cells, selected for vorinostat resistance
Reagents: siRNA pool against human genes, 40 nM siRNA pool
Duration: vorinostat for 24 h, read-out about 72 h after transfection
Treatment: vorinostat at 2.5 µM final
Read-out: 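Two measures, CellTiter-Fluor viability and luminescent caspase 3/7 activity, each as fold change against same-plate mock wells, mean of duplicates, then screen-wide robust z-score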
Reading the numbers: viability robust z-score: higher = more viable cells than screen typical; caspase robust z-score: higher = more caspase 3/7 activity than screen typical
Rule for the call: 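a knock-down is a hit when classed RV1 or RV2 for lowered viability, or CA1 or CA2 for caspase activation; those lethal without drug were dropped; hits were retested singly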

| gene | viability hit class | caspase hit class | viability robust z-score | caspase robust z-score |
| --- | --- | --- | --- | --- |
| OR52E4 (olfactory receptor family 52 subfamily E member 4) | no change | no change | -0.98 | 1.75 |
| SNRPB2 (small nuclear ribonucleoprotein polypeptide B2) | no change | no change | -0.02 | -0.57 |
| LAMTOR1 (late endosomal/lysosomal adaptor, MAPK and MTOR activator 1) | no change | no change | 0.59 | 0.02 |
| TIPIN (TIMELESS interacting protein) | no change | no change | 0.6 | -1.08 |
| SDR39U1 (short chain dehydrogenase/reductase family 39U member 1) | no change | no change | -0.01 | 1.27 |
| ZNF623 (zinc finger protein 623) | no change | no change | 0.76 | -0.24 |
| BCL10 (BCL10 immune signaling adaptor) | no change | no change | 0.05 | 0.75 |
| TMEM18 (transmembrane protein 18) | no change | no change | 1.19 | -0.9 |
| TNS2 (tensin 2) | no change | no change | 0.99 | 3.97 |
| LHFPL4 (LHFPL tetraspan subfamily member 4) | no change | no change | 2.29 | -0.24 |
| THUMPD2 (THUMP domain 2 tRNA and snRNA guanosine methyltransferase) | no change | no change | 0.52 | 3.01 |
| NKAPL (NFKB activating protein like) | no change | no change | 0.71 | 0.02 |
| SAMD4A (sterile alpha motif domain containing 4A) | no change | no change | 0.66 | -0.6 |
| CEP72 (centrosomal protein 72) | no change | no change | -3.25 | -0.55 |
| POM121L12 (POM121 transmembrane nucleoporin like 12) | no change | no change | -0.46 | -0.62 |
| HIP1 (huntingtin interacting protein 1) | no change | no change | -0.66 | -0.49 |
| LYPD5 (LY6/PLAUR domain containing 5) | no change | no change | 0.32 | 0.57 |
| GAS2L1 (growth arrest specific 2 like 1) | no change | no change | -0.57 | -1 |
| KCTD18 (potassium channel tetramerization domain containing 18) | no change | no change | -0.24 | -0.18 |
| CFTR (CF transmembrane conductance regulator) | no change | no change | 0.37 | -1.04 |
| CYBRD1 (cytochrome b reductase 1) | no change | no change | -1.02 | -0.56 |
| QPCT (glutaminyl-peptide cyclotransferase) | no change | no change | -0.13 | 0.6 |
| IL17C (interleukin 17C) | no change | no change | 0.49 | 1.5 |
| TMEM102 (transmembrane protein 102) | no change | no change | -0.18 | 1.48 |
| HLA-DRB5 (major histocompatibility complex, class II, DR beta 5) | no change | no change | 0.22 | 0.32 |
| HTRA4 (HtrA serine peptidase 4) | no change | no change | 0.87 | 0.12 |
| COMT (catechol-O-methyltransferase) | no change | no change | -2.91 | 6.72 |
| TAAR2 (trace amine associated receptor 2) | no change | no change | -0.07 | -0.13 |
| DDX1 (DEAD-box helicase 1) | no change | no change | 0.02 | 0.56 |
| HADHB | no change | no change | 0.88 | -0.44 |
| DUS1L (dihydrouridine synthase 1 like) | no change (active) | CA2 (caspase activation) | -3 | 5.62 |
| SYNRG (synergin gamma) | no change | no change | -0.08 | 0.59 |
| DNAH11 (dynein axonemal heavy chain 11) | no change | no change | 0.29 | -1.11 |
| AMY2B (amylase alpha 2B) | no change | no change | -0.45 | -0.8 |
| SCN1B (sodium voltage-gated channel beta subunit 1) | no change | no change | -1.02 | 1.62 |
| SNX2 (sorting nexin 2) | no change | no change | -0.1 | -1.09 |
| IGF2R (insulin like growth factor 2 receptor) | no change | no change | 0.1 | -0.78 |
| RASL11B (RAS like family 11 member B) | no change | no change | -0.5 | 1.64 |
| IL25 (interleukin 25) | no change | no change | 0.7 | 2.17 |

Entries above marked active (1):
| gene | viability hit class | caspase hit class | viability robust z-score | caspase robust z-score |
| --- | --- | --- | --- | --- |
| DUS1L (dihydrouridine synthase 1 like) | no change (active) | CA2 (caspase activation) | -3 | 5.62 |
